These results are taken from PMC5442318, “Hundreds of dual-stage antimalarial molecules discovered by a functional gametocyte screen” (Nature Communications, 2017).

The data set deals with HepG2 cells. The data set can be described thus: HepG2 cytotoxicity assay. Conditions: HepG2 TOX50 versus Pf FGAA IC50. Format: cell-based. Here is the method: After incubation, plates and CellTiter-Glo Reagent (G7571, Promega) were equilibrated at room temperature for 30 min before proceeding to develop the luminescent signal. Using a Multidrop combi dispenser, 25 μl per well of the signal developer were added to the plates and after 10 min at room temperature for stabilization, plates were read on the ViewLux system (Perkin Elmer).
As to `Br.CCc1c(CCNCCCCCCNCCc2ccc(Br)cc2)ccc(O)c1O` [TCMDC-132044], the Selectivity ratio was 6.15.

For the compound `CCc1c(CCNCCCCCCNC(C)Cc2ccc3c(c2CC)OCO3)ccc(OC)c1OC.Cl` (centres unmarked) [TCMDC-132052], the Selectivity ratio stood at 5.11.

For `Cc1c2ccncc2c(C)c2c1[nH]c1cc(Cc3ccccc3)c(O)cc12` [TCMDC-132053], the Selectivity ratio is reported as 1.13.

Take `CCc1c(CCNCCCCCCNC(C)(C)Cc2ccc3c(c2CC)OCO3)ccc(OC)c1OC.Cl` [TCMDC-132055]: the Selectivity ratio was determined as 3.49.

As to `CCc1c(CCNC/C=C/C=C/CNCCc2ccc(OC)c(OC)c2CC)ccc(OC)c1OC.Cl` [TCMDC-132061], the Selectivity ratio was 1.82.

`CCc1c(CCNCCCCCNCCc2ccc(OC)c(OC)c2CC)ccc(OC)c1OC.Cl` [TCMDC-132064]: the Selectivity ratio is listed as 2.28.

With `CCc1c(CCNCCCCCCNCCc2ccc([N+](=O)[O-])cc2)ccc(OC)c1OC.Cl` [TCMDC-132066], the Selectivity ratio stood at 3.13.

Consider `Nc1c(Cl)cc(C(O)CNCCCCCOCCCc2ccc(O)c3ncccc23)cc1Cl.O=C(O)/C=C/C(=O)O` (centres unmarked) [TCMDC-132088], for which the Selectivity ratio was found to be 3.69.

With `CCc1c(CCNCCCCCCNCCc2ccc3c(c2C)OCO3)ccc2c1OCO2.Cl` [TCMDC-132093], the Selectivity ratio is 3.81.

On to `CN(C)Cc1cccc2nc(-c3csc(Cc4cc(Cl)ccc4OCc4ccccc4)n3)[nH]c12` [TCMDC-132174], for which the Selectivity ratio came out at 6.21.

For `O=C(O)C(F)(F)F.O=S(=O)(NCCN1CCCC1)c1ccc(-c2cccc(CNC3Cc4ccccc4C3)c2)cc1` [TCMDC-132215], the Selectivity ratio amounted to 2.38.

For the compound `O=C(O)C(F)(F)F.O=S(=O)(NCCN1CCCC1)c1ccc(-c2cccc(CNC3Cc4ccccc4C3)c2)s1` [TCMDC-132217], the Selectivity ratio is 4.26.

Consider `CN1CCC(NCc2cccc(-c3ccc(S(=O)(=O)NCc4ccccc4)c(F)c3)c2)CC1.O=C(O)C(F)(F)F` [TCMDC-132219], for which the Selectivity ratio worked out at 1.95.

As for `O=C(O)C(F)(F)F.O=S(=O)(NCCN1CCCC1)c1ccc(-c2ccc(CNC3Cc4ccccc4C3)cc2)s1` [TCMDC-132234], the Selectivity ratio was 2.56.

On to `O=C(O)C(F)(F)F.O=S(=O)(NCCN1CCCC1)c1cccc(-c2ccc(CNC3Cc4ccccc4C3)cc2)c1` [TCMDC-132241], for which the Selectivity ratio amounted to 2.08.

On to `Cc1cc(-c2ccc(CNC3Cc4ccccc4C3)cc2)ccc1S(=O)(=O)NCCN1CCCC1.O=C(O)C(F)(F)F` [TCMDC-132243], for which the Selectivity ratio is given as 2.90.

`COc1ccc(CNC2Cc3ccccc3C2)cc1-c1ccc(S(=O)(=O)NCCN2CCCC2)cc1.O=C(O)C(F)(F)F` [TCMDC-132248]: the Selectivity ratio worked out at 2.95.

For `COc1ccc(CNC2Cc3ccccc3C2)cc1-c1ccc(OC)c(S(=O)(=O)NCCN2CCCC2)c1.O=C(O)C(F)(F)F` [TCMDC-132251], the Selectivity ratio came out at 2.65.

For `COc1ccc(CNC2CCN(C)CC2)cc1-c1ccc(S(=O)(=O)NCc2ccccc2)s1.O=C(O)C(F)(F)F` [TCMDC-132253], the Selectivity ratio was 3.13.

With `COc1ccc(CNC2Cc3ccccc3C2)cc1-c1ccc(S(=O)(=O)NCCN2CCCC2)s1.O=C(O)C(F)(F)F` [TCMDC-132258], the Selectivity ratio was found to be 3.82.

On to `COc1ccc(CNC2Cc3ccccc3C2)cc1-c1ccc(S(=O)(=O)NCCN2CCCC2)c(F)c1.O=C(O)C(F)(F)F` [TCMDC-132266], for which the Selectivity ratio is 3.10.

For the compound `Cl.N[C@@H](CCNC1CCN(c2cccc(C(F)(F)F)c2)CC1)Cc1ccc(F)c(F)c1` [TCMDC-132301], the Selectivity ratio worked out at 8.50.

For the compound `Cc1ccc(Cn2nc(N3CCNCC3)ccc2=O)cc1NC(=O)Nc1ccc(-c2ccccc2)cc1.O=C(O)C(F)(F)F` [TCMDC-132580], the Selectivity ratio stood at 3.83.

In the case of `O=S(=O)(Nc1cccc(F)c1CNCc1ccccn1)c1ccc(Cl)c(Cl)c1` [TCMDC-132598], the Selectivity ratio is listed as 15.04.

On to `Cc1cccc2nc(-c3ccc(-c4ccc(CNCc5ccc(CN)cc5)cc4)s3)[nH]c12.O=C(O)C(F)(F)F` [TCMDC-132809], for which the Selectivity ratio was found to be 31.75.

Consider `NCc1ccc(CNCc2cccc(-c3ccc(-c4nc5cc(C(F)(F)F)ccc5[nH]4)cc3)c2)cc1.O=C(O)C(F)(F)F` [TCMDC-132811], for which the Selectivity ratio was found to be 17.69.

`Cc1cccc2nc(-c3ccc(-c4ccc(CNCc5ccc(CN)cc5)cc4)cc3)[nH]c12.O=C(O)C(F)(F)F` [TCMDC-132813]: the Selectivity ratio was determined as 8.37.

Regarding `NCc1ccc(CNCc2ccc(-c3ccc(-c4nc5cc(C(F)(F)F)ccc5[nH]4)s3)cc2)cc1.O=C(O)C(F)(F)F` [TCMDC-132814], the Selectivity ratio came to 8.12.

As for `CNCCNCc1ccc(-c2ccc(-c3nc4cc(C(F)(F)F)ccc4[nH]3)s2)cc1.O=C(O)C(F)(F)F` [TCMDC-132838], the Selectivity ratio is given as 4.75.

For `FC(F)(F)c1ccc2[nH]c(-c3ccc(-c4ccc(CNCCN5CCNCC5)cc4)s3)nc2c1.O=C(O)C(F)(F)F` [TCMDC-132862], the Selectivity ratio came out at 4.30.

In the case of `FC(F)(F)c1ccc2[nH]c(-c3ccc(-c4cccc(CNCCN5CCNCC5)c4)cc3)nc2c1.O=C(O)C(F)(F)F` [TCMDC-132864], the Selectivity ratio was found to be 7.18.

In the case of `FC(F)(F)c1ccc2[nH]c(-c3ccc(-c4ccc(CNCCN5CCNCC5)cc4)cc3)nc2c1.O=C(O)C(F)(F)F` [TCMDC-132865], the Selectivity ratio is on record as 11.65.

In the case of `Cc1cccc2nc(-c3ccc(-c4ccc(CNCCN5CCNCC5)cc4)s3)[nH]c12.O=C(O)C(F)(F)F` [TCMDC-132870], the Selectivity ratio is reported as 9.35.

In the case of `FC(F)(F)c1ccc2[nH]c(-c3cccc(-c4cccc(CNCCN5CCNCC5)c4)c3)nc2c1.O=C(O)C(F)(F)F` [TCMDC-132871], the Selectivity ratio came out at 5.42.

On to `FC(F)(F)c1ccc2[nH]c(-c3cccc(-c4ccc(CNCCN5CCNCC5)cc4)c3)nc2c1.O=C(O)C(F)(F)F` [TCMDC-132872], for which the Selectivity ratio worked out at 4.93.

On to `CCCN(CC1CC1)c1ncc(-c2cccc(CNCCC3CCCN3C)c2)cn1` (centres unmarked) [TCMDC-133142], for which the Selectivity ratio worked out at 1.42.

For `CN(CCc1ccccc1)c1ncc(-c2cccc(CNCCC3CCCN3C)c2)cn1` (centres unmarked) [TCMDC-133143], the Selectivity ratio is 2.13.

Turning to `CN1CCCC1CCNCc1cccc(-c2cnc(N3CCCC(C)(C)C3)nc2)c1` (centres unmarked) [TCMDC-133144], the Selectivity ratio is 2.77.

Regarding `O=C(Nc1cccc(-c2cccc(-c3nc4cc(C(F)(F)F)ccc4[nH]3)c2)c1)Nc1ccc(F)c(F)c1F` [TCMDC-133229], the Selectivity ratio is given as 2.46.

In the case of `COc1cc(-c2cc(-c3ccc(S(C)(=O)=O)cc3)cnc2N)ccc1O` [TCMDC-133343], the Selectivity ratio is on record as 106.15.

With `COc1ccccc1C1CCN(C2CCC(NC(=O)c3ccc4[nH]c(-c5ccc(C)cc5)nc4c3)CC2)CC1` (centres unmarked) [TCMDC-133556], the Selectivity ratio is on record as 1.60.

On to `CN1CCC(N2CCN(Cc3cccc(-c4ccc(-c5nc6cc(C(F)(F)F)ccc6[nH]5)cc4)c3)CC2)CC1.O=C(O)C(F)(F)F` [TCMDC-133842], for which the Selectivity ratio is 2.23.

As for `CN1CCCC(CN2CCN(Cc3cccc(-c4ccc(-c5nc6cc(C(F)(F)F)ccc6[nH]5)cc4)c3)CC2)C1.O=C(O)C(F)(F)F` (centres unmarked) [TCMDC-133882], the Selectivity ratio was 3.14.

Consider `O=C(O)C(F)(F)F.c1cc(CN2CCC(CCN3CCCCC3)CC2)cc(-c2csc(-c3nc4ccccc4[nH]3)c2)c1` [TCMDC-133919], for which the Selectivity ratio is on record as 2.87.

As to `Fc1ccc2[nH]c(-c3ccc(-c4ccc(CN5CCC(CCN6CCCCC6)CC5)cc4)cc3)nc2c1.O=C(O)C(F)(F)F` [TCMDC-133924], the Selectivity ratio amounted to 2.31.

`Fc1ccc2[nH]c(-c3cccc(-c4ccc(CN5CCC(CCN6CCCCC6)CC5)cc4)c3)nc2c1.O=C(O)C(F)(F)F` [TCMDC-133940]: the Selectivity ratio was 2.54.

`FC(F)(F)c1ccc2[nH]c(-c3ccc(-c4cccc(CN5CCC(CCN6CCCCC6)CC5)c4)cc3)nc2c1.O=C(O)C(F)(F)F` [TCMDC-133941]: the Selectivity ratio is recorded as 3.54.

Take `Cn1c(Nc2cc(C(C)(C)C)on2)nc2cc(Nc3ccnc(Nc4cccc(S(=O)(=O)N5CCOCC5)c4)n3)ccc21` [TCMDC-134098]: the Selectivity ratio amounted to 6.83.

Consider `Cc1cc(Nc2ncc(C#N)c(Nc3ccccc3C(N)=O)n2)ccc1N1CCN(C)CC1.Cl` [TCMDC-134115], for which the Selectivity ratio was determined as 0.24.

Regarding `Cc1ccc(C(C(=O)Nc2ccc(N3CCNCC3)c(Cl)c2)c2ccccc2)cc1` (centres unmarked) [TCMDC-134292], the Selectivity ratio is given as 18.11.

`Cc1n[nH]c2ccc(-c3ccc4nccc(N5CCC(N)CC5)c4c3)cc12.Cl` [TCMDC-134315]: the Selectivity ratio is listed as 2.80.

In the case of `CC(C)c1ccc(CN2CCC(CNC(=O)c3cc(-c4cccc(C(F)(F)F)c4)cs3)C2)cc1.O=C(O)C(F)(F)F` (centres unmarked) [TCMDC-134435], the Selectivity ratio stood at 3.93.

For `CC(C)c1ccc(CN2CCC(CNC(=O)c3cc(-c4ccccc4F)cs3)C2)cc1.O=C(O)C(F)(F)F` (centres unmarked) [TCMDC-134436], the Selectivity ratio turned out to be 8.46.

As to `CC(C)c1ccc(CN2CCC(CNC(=O)c3cc(-c4cccc(F)c4)cs3)C2)cc1.O=C(O)C(F)(F)F` (centres unmarked) [TCMDC-134437], the Selectivity ratio is 4.56.

In the case of `CC(C)c1ccc(CN2CCC(CNC(=O)c3cc(-c4cccc(Cl)c4)cs3)C2)cc1.O=C(O)C(F)(F)F` (centres unmarked) [TCMDC-134438], the Selectivity ratio was 10.89.

As for `COc1cccc(-c2csc(C(=O)NCC3CCN(Cc4ccc(C(C)C)cc4)C3)c2)c1.O=C(O)C(F)(F)F` (centres unmarked) [TCMDC-134439], the Selectivity ratio is recorded as 8.39.

Take `CC(C)c1ccc(CN2CCC(CNC(=O)c3cc(-c4ccc(N(C)C)cc4)cs3)C2)cc1.O=C(O)C(F)(F)F` (centres unmarked) [TCMDC-134440]: the Selectivity ratio came to 8.27.

As to `CC(C)(C)c1ccc(CN2CCC(CNC(=O)c3cc(-c4ccccc4C(F)(F)F)cs3)C2)cc1.O=C(O)C(F)(F)F` (centres unmarked) [TCMDC-134441], the Selectivity ratio is given as 14.18.

As to `CC(C)(C)c1ccc(CN2CCC(CNC(=O)c3cc(-c4cccc(C(F)(F)F)c4)cs3)C2)cc1.O=C(O)C(F)(F)F` (centres unmarked) [TCMDC-134442], the Selectivity ratio was 6.75.
